Laboratory results published in PMC10380243.
Results are given in words; binding and its absence hold for the method and conditions named. Binding seen in cells or lysates may run through a third protein. Some binding calls cover weakened binding; strength is not graded here.

The chains behind the UniProt entries cited, without tags or fusion partners.
UniProt Q9NP97: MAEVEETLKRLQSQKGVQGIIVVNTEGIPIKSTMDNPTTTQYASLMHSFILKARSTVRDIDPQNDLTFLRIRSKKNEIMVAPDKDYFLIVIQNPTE
UniProt P62628: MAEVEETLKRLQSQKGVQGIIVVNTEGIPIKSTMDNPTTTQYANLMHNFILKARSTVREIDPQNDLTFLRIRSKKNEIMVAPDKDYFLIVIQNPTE
UniProt P81799: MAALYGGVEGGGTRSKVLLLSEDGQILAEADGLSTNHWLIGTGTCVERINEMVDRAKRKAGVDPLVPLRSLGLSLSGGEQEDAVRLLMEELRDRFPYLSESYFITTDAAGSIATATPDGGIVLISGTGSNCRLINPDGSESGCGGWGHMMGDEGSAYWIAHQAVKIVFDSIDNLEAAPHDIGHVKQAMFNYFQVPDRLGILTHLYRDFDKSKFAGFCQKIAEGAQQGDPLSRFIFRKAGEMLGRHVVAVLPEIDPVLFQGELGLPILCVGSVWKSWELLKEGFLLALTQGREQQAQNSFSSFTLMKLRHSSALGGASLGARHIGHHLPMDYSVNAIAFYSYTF

Tests used:
[1] = target: His-tagged N-acetylglucosamine kinase (His-NAGK) (UniProt Q9UJ70); assay: pull-down; His pull-down on Ni-NTA magnetic silica resin from lysates (500 µg) of HEK293T cells transfected for 48 h; IP lysis buffer 25 mM Tris-HCl pH 7.4, 150 mM NaCl, 1 mM EDTA, 1% NP-40, 5% glycerol; Western blot
[2] = target: dynein light-chain roadblock type 1 (DYNLRB1), endogenous in human cells (human (endogenous in HEK293T and SK-MEL-31)) (UniProt Q9NP97); assay: proximity ligation; Duolink PLA on fixed SK-MEL-31 cells treated with DMSO, ciliobrevin D (80 µM for 6 h) or nocodazole (10 µM for 1 h)
[3] = target: dynein light-chain roadblock type 1 (DYNLRB1), endogenous in rat hippocampal neurons (rat (endogenous in primary hippocampal neurons)) (UniProt P62628); assay: proximity ligation; Duolink PLA on fixed primary rat hippocampal neurons, DIV 1/3/5 and DIV 12/16/21; negative control with a single primary antibody; for NAGK-SNRPN also at DIV 4 and DIV 14 after AAV overexpression or knockdown of NAGK and SNRPN

Row | binding [1] | Substance | also measured
1 | binds | Myc-DDK-DYNLRB1 (from UniProt P62628 1-96) | 
2 |  | N-acetylglucosamine kinase (NAGK), endogenous in human cells (from UniProt Q9UJ70 1-344) | binding [2]: binds
3 |  | N-acetylglucosamine kinase (NAGK), endogenous in rat hippocampal neurons (from UniProt P81799 1-343) | binding [3]: binds
4 | binds | dynein light-chain roadblock type 1 (DYNLRB1), endogenous in human cells (from UniProt Q9NP97 1-96) | 
